The target in the experiment is phosphorylated Pyk2 at Tyr402 (proline-rich tyrosine kinase 2) (rat (endogenous in rat caudal arterial smooth muscle)) (UniProt P70600). Briefly: co-IP; anti-phospho-Pyk2 (Tyr402) antibody on Dynabeads Protein G, incubated 30 min with RIPA extract of endothelium-denuded rat caudal arterial smooth muscle strips (unstimulated, 60 mM K+ for 5 min, or 60 mM K+ after 10 mM sodium salicylate for 20 min); normal mouse IgG as control; Western blot of the precipitate.

The chains behind the UniProt entries cited, without tags or fusion partners.
UniProt P70600: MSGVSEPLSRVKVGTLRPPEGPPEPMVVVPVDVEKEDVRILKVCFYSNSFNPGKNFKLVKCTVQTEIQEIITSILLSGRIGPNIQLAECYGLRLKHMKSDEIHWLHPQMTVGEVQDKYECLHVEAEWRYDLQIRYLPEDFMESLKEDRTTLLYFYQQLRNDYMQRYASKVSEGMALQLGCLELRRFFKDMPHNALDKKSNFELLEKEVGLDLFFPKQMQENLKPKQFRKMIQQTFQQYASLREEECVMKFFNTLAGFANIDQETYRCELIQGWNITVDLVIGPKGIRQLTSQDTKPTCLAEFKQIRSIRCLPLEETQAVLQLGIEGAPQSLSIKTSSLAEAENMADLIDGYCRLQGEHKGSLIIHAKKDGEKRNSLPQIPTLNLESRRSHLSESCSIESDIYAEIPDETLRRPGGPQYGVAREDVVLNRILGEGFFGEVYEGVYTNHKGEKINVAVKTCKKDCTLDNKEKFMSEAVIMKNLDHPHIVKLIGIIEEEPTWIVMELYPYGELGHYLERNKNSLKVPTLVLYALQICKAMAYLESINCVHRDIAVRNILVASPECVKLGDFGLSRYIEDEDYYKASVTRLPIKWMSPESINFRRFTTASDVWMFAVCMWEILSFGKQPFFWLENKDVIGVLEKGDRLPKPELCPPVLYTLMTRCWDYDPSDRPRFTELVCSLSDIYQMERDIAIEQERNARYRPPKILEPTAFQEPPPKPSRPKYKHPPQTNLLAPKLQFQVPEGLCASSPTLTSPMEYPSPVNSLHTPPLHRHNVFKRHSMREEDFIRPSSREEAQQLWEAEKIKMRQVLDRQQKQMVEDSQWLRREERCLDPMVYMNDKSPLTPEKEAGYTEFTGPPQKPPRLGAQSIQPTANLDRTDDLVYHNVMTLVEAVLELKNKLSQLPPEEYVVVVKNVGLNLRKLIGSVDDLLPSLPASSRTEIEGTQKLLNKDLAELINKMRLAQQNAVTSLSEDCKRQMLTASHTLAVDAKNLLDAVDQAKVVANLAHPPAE
UniProt Q9ES67: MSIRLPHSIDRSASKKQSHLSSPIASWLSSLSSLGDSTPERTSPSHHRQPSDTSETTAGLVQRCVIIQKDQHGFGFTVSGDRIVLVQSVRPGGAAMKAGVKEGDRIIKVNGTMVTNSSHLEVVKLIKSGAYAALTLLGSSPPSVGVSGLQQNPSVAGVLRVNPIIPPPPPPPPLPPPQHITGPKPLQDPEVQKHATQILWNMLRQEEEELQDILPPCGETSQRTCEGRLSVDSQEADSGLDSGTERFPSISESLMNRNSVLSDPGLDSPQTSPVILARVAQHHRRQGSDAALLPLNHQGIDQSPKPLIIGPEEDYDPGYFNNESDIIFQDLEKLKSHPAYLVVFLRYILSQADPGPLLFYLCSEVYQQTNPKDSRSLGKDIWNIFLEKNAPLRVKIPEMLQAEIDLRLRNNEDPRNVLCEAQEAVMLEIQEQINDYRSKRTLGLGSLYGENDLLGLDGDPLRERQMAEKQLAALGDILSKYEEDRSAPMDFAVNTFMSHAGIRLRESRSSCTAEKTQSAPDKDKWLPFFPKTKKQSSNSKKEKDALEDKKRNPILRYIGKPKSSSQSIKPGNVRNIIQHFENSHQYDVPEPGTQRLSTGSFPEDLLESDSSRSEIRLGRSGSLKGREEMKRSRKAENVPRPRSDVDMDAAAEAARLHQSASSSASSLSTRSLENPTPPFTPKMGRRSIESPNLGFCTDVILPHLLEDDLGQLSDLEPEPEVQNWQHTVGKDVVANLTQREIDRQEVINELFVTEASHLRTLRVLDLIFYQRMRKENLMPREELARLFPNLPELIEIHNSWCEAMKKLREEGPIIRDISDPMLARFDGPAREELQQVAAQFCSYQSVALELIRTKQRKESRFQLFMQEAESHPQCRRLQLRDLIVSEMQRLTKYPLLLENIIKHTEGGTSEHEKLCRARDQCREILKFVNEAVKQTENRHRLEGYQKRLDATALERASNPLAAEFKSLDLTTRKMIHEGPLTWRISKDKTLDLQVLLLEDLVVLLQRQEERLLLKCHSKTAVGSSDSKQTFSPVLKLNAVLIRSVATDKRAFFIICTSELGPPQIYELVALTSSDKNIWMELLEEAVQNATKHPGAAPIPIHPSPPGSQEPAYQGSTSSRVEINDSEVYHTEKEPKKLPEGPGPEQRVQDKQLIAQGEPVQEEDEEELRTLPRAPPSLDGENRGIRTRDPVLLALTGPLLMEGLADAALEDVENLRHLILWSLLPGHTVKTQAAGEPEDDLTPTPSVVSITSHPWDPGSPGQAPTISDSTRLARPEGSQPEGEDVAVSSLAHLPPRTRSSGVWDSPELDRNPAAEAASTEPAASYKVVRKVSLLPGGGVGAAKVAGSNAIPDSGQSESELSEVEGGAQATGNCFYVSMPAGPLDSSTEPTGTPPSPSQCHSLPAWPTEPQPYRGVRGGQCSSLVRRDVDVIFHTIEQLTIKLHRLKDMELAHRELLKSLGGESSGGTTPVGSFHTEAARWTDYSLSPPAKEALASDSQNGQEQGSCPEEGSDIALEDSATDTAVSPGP

No constants are given. Whether binding was seen depends on the method and setting. In cells and extracts the contact can be indirect. Some binding calls cover weakened binding; strength is not graded here.

This note sets out measurements from PMC12429383.

As for “ArhGEF11 (PDZ-RhoGEF) (from UniProt Q9ES67 1-1527)”, the binding entry is “binds”.
